According to ChEMBL document CHEMBL1152842, “Synthesis, Raman, FT-IR, NMR spectroscopic data and antimicrobial activity of mixed aza-oxo-thia macrocyclic compounds” (2009):

Test system: Candida albicans
Assay: Antifungal activity against Candida albicans ATCC 10231 at 1 ug after 72 hrs by disk diffusion method
Type: functional

## NYSTATIN
  inhibition zone (IZ): 18 mm
